From publication doi:10.1101/2023.06.12.544600 come the findings set out here.

Results are given in words; binding and its absence hold for the method and conditions named. In cells and extracts the contact can be indirect. Binding calls can cover weak binding; strength is not graded here. Sequences can lack the tags named with a protein.

This assay deals with T1, Dmo2p with its C-terminal fused to protein C epitope followed by polyhistidine (Dmo2p-CH) (S. cerevisiae) (UniProt Q12082).
T1 sequence: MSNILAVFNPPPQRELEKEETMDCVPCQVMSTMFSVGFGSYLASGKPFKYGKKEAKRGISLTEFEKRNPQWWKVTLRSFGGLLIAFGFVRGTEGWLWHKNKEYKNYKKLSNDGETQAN
The assay can be described thus: co-IP.

On to “Sco2p (S. cerevisiae (endogenous in W303))”, for which the binding result is reported as “binds”.
The same measure for “Sco1p (S. cerevisiae (endogenous in W303))”: “binds”.
